Values quoted from earlier work, collected in patent US9834820B2, “Methods for the treatment and diagnosis of bone mineral density related diseases” (INSERM (Institut National de la Sante et de la Recherche …, priority 2007, dated 2017).
At least one structure is not confirmed: it was looked up by name or label, or the drawing left a doubt.

Conditions: twelve month results, postmenopausal women; cited from earlier work

Structure (SMILES): CC(C)(F)C[C@H](N[C@@H](c1ccc(-c2ccc(S(C)(=O)=O)cc2)cc1)C(F)(F)F)C(=O)NC1(C#N)CC1 [odanacatib]
- bone mineral density compared to placebo: dose-dependent increases
- bone turnover compared to placebo: reduced
